The record followed here is publication PMC10401043.

Chains of the proteins cited; added tags and fusions are not shown. Residues count along the entry.
UniProt P35579, residues 1795-1960: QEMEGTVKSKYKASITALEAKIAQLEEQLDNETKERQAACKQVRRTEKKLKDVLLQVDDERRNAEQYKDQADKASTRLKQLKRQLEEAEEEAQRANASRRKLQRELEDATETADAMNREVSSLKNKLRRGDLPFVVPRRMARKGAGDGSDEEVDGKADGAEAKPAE

Results are given in words; binding and its absence hold for the method and conditions named. In cells and extracts the contact can be indirect. Some results given as binding are weak or reduced against the parent protein; the word gives no strength.

In the test the target is GST-myosin II heavy chain tail (amino acids 1795-1960) (UniProt P35579). Description: pull-down; 10 μg purified GST-tagged protein on Glutathione Sepharose 4B, 200 μl precleared lysate of MelJuSo cells (siRNA control), 30 min at 4°C, western blot; only the target purified. A general note: A western blot detects proteins with antibodies after separation by electrophoresis.

B1: Retinoic Acid-Induced 14 (Rai14), endogenous in MelJuSo cells (protein, UniProt Q9P0K7 1-980)
chain: MKSLKAKFRKSDTNEWNKNDDRLLQAVENGDAEKVASLLGKKGASATKHDSEGKTAFHLAAAKGHVECLRVMITHGVDVTAQDTTGHSALHLAAKNSHHECIRKLLQSKCPAESVDSSGKTALHYAAAQGCLQAVQILCEHKSPINLKDLDGNIPLLLAVQNGHSEICHFLLDHGADVNSRNKSGRTALMLACEIGSSNAVEALIKKGADLNLVDSLGYNALHYSKLSENAGIQSLLLSKISQDADLKTPTKPKQHDQVSKISSERSGTPKKRKAPPPPISPTQLSDVSSPRSITSTPLSGKESVFFAEPPFKAEISSIRENKDRLSDSTTGADSLLDISSEADQQDLLSLLQAKVASLTLHNKELQDKLQAKSPKEAEADLSFDSYHSTQTDLGPSLGKPGETSPPDSKSSPSVLIHSLGKSTTDNDVRIQQLQEILQDLQKRLESSEAERKQLQVELQSRRAELVCLNNTEISENSSDLSQKLKETQSKYEEAMKEVLSVQKQMKLGLVSPESMDNYSHFHELRVTEEEINVLKQDLQNALEESERNKEKVRELEEKLVEREKGTVIKPPVEEYEEMKSSYCSVIENMNKEKAFLFEKYQEAQEEIMKLKDTLKSQMTQEASDEAEDMKEAMNRMIDELNKQVSELSQLYKEAQAELEDYRKRKSLEDVTAEYIHKAEHEKLMQLTNVSRAKAEDALSEMKSQYSKVLNELTQLKQLVDAQKENSVSITEHLQVITTLRTAAKEMEEKISNLKEHLASKEVEVAKLEKQLLEEKAAMTDAMVPRSSYEKLQSSLESEVSVLASKLKESVKEKEKVHSEVVQIRSEVSQVKREKENIQTLLKSKEQEVNELLQKFQQAQEELAEMKRYAESSSKLEEDKDKKINEMSKEVTKLKEALNSLSQLSYSTSSSKRQSQQLEALQQQVKQLQNQLAECKKQHQEVISVYRMHLLYAVQGQMDEDVQKVLKQILTMCKNQSQKK
Take B1: the binding entry was “binds”.
